PubChem BioAssay AID588590 (National Center for Advancing Translational Sciences (NCATS), 2011)
The campaign covered roughly 390,000 compounds. About 4,000 (1%) were called active. The inconclusive results got no clear call from the source; some entries with a clear call stand among them for comparison. Calls follow the shape of the dose curve; as a rule, active = well fitted inhibition curve with a large enough effect; inconclusive = small, poorly fitted or top-dose-only effect, or another doubt; inactive = no such curve, though single readings can be large or run the other way. A potency beside an inconclusive call is a rough fit, not a confirmed value.

Protein sequences, listed by entry. Tags and fused reporters are not part of them. Lines headed by an entry give the natural chain unless they say otherwise; changes in a name come on top.
UniProt Q9UNA4: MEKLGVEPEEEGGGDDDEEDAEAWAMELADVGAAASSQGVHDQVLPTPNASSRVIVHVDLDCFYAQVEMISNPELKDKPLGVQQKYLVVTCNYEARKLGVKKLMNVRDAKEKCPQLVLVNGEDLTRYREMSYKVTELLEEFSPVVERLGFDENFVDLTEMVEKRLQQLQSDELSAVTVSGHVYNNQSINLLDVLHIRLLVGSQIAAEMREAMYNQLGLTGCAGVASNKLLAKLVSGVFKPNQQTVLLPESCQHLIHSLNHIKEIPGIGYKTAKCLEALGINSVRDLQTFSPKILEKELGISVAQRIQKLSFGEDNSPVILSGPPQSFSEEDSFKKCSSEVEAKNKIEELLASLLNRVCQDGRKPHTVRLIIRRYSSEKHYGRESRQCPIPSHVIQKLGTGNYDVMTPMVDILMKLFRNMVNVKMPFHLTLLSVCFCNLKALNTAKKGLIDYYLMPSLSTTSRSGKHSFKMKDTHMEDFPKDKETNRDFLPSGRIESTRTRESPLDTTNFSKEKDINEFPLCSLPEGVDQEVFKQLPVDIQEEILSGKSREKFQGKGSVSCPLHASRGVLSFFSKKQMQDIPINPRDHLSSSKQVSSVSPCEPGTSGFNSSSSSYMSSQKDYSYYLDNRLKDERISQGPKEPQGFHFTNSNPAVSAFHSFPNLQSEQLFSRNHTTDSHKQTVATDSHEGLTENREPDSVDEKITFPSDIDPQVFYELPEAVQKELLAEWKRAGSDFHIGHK

target: DNA polymerase iota (Homo sapiens) (UniProt Q9UNA4); assay: qHTS for Inhibitors of Polymerase Iota; conditions: Pol iota fluorescent replication assay, 10 min; series mostly up to 115 µM
Outline: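 Pol iota at 10 nM preincubated 15 min with compounds at room temperature; reaction started with fluorescent substrate, 50 nM final. Fluorescence read kinetically at 0 and 10 min; buffer-only wells as negative control.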
Potency is read from the fitted curve at half-maximal effect.

Potency, inactive:
CCCn1cc(S(=O)(=O)c2ccccc2)c(=O)c2cc(F)c(N3CCCC(C)C3)cc21 (centres undefined)
CCCN(CCC)CCNC(=O)C1c2ccccc2C(=O)N2CCc3ccccc3C12 (centres undefined)
COc1ccc(-c2cc(C(=O)NNC(=S)NC(=O)c3c(-c4ccccc4)noc3C)[nH]n2)cc1
COc1ccccc1-c1nc2c(c(SCC(=O)Nc3ccc(C)c(C)c3)n1)Cc1c(CO)cnc(C)c1O2
COc1cccc(Cn2c(CNC(=O)Cc3cccc(C)c3)nc3cccnc32)c1
CCCCN(CC)CCCNC(=O)c1nn(C)c2c1CS(=O)(=O)c1ccccc1-2
COc1ccc(C(=O)N2c3ccccc3C(C)(c3ccc(Cl)cc3)CC2(C)C)cc1 (centres undefined)
CCOc1ccccc1N1CCN(C(=O)c2cccs2)CC1

Potency, inconclusive:
O=c1[nH]n(-c2ccccc2)c(=O)c(Cl)c1Cl 25.1 µM [inhibitor, partial curve, poor fit]
CCOC(=O)/C(N=O)=C(\O)C1CCN(C(=O)OCC)CC1 39.8 µM [inhibitor, single point]
COc1ccc(NC(=O)CN(c2ccc(OC)c(Cl)c2)S(=O)(=O)c2ccccc2)c(OC)c1 70.8 µM [inhibitor, partial curve]
Cc1ccc(C)c(Cn2nnc3c(=O)[nH]c(C4CCN(S(=O)(=O)c5ccc(S(=O)(=O)N(C)C)cc5)CC4)nc32)c1 35.5 µM [inhibitor, single point]
CCOC(=O)CCNC(=O)Nc1ccc2nc(C)n(Cc3ccc(Cl)cc3)c(=O)c2c1 89.1 µM [inhibitor, single point]
CCOc1ccc(OCCN2C(=O)c3ccccc3C2=O)cc1 89.1 µM [inhibitor, single point]
O=C(Nc1ccc(N2CCN(C(=O)c3ccccc3)CC2)cc1)c1ccc([N+](=O)[O-])o1 50.1 µM [inhibitor, partial curve, poor fit]
Cc1cc(C2CCCCC2)n(O)c(=O)c1 28.2 µM [inhibitor, partial curve, poor fit]
Cc1ccc(S(=O)(=O)CC(=O)Nc2sc3c(c2C#N)CCCC3)cc1 15.8 µM [inhibitor, partial curve]
C#CCOCCOCCOCCNc1nc(N2CCN(C(=O)[C@H]([C@@H](C)CC)n3cc(CCCCN)nn3)CC2)nc(N2CCN(C(=O)[C@H](CCCCN)n3cc(CCC(=O)O)nn3)CC2)n1 3.98 µM [inhibitor, partial curve, poor fit]
CC(NS(=O)(=O)c1ccc2ccccc2c1)c1ccccn1 (centres undefined) 22.4 µM [inhibitor, full curve, poor fit]
COc1ccc2nc(C)c3cc(C)oc3c2c1 3.16 µM [inhibitor, partial curve, poor fit]
CC(C)C(=O)c1cn(CC(=O)NCc2ccc3c(c2)OCO3)c2ccccc12 35.5 µM [inhibitor, single point]
Cc1ccc(C)c(NC(=O)Cn2cc(C(=O)c3ccco3)c3ccccc32)c1 79.4 µM [inhibitor, partial curve, poor fit]
COc1ccccc1C(=O)Oc1ccc2ccc(=O)oc2c1 89.1 µM [inhibitor, partial curve, poor fit]
CCOC(=O)/C(C#N)=C/c1c(N2CCN(Cc3ccc4c(c3)OCO4)CC2)nc2c(C)cccn2c1=O 31.6 µM [inhibitor, single point]
COc1ccc(Cc2nnc(Nc3ccccc3)s2)cc1Br 31.6 µM [inhibitor, partial curve, poor fit]
Cc1cccc(NC(=O)Cn2c(=O)n(CCCS(=O)(=O)C3CCCCC3)c(=O)c3ccccc32)c1 89.1 µM [inhibitor, partial curve, poor fit]
O=C(Nc1ccc2c(c1)OCO2)c1cc2ncc(Br)cn2n1 10 µM [inhibitor, full curve, poor fit]
Cc1cc(C)cc(NC(=O)CSc2nnc(-c3ccccc3)n2N)c1 112 µM [inhibitor, partial curve, poor fit]
O=C(NCCn1cc(SCc2ccc(Cl)cc2)c2ccccc21)c1cccs1 2.82 µM [inhibitor, full curve, poor fit]
Cc1ccc(-c2nc(SCC(=O)N(C)C3CCS(=O)(=O)C3)[nH]c2-c2ccc(C)cc2)cc1 (centres undefined) 79.4 µM [inhibitor, full curve]
COc1cccc(-c2nc(SCC(=O)Nc3ccc4c(c3)OCCO4)c(-c3ccccc3)[nH]2)c1 70.8 µM [inhibitor, single point]
CC(C)C(OC(=O)C1=Cc2ccccc2OC1)C(=O)NCC1CCCO1 (centres undefined) 15.8 µM [inhibitor, full curve, poor fit]
Cc1cc(/C=C2/SC(=O)NC2=O)c(C)n1-c1ccc(N2CCOCC2)cc1 3.16 µM [inhibitor, partial curve, poor fit]
O=C(C=Cc1ccccc1)c1c[nH]c2ccccc2c1=O 22.4 µM [inhibitor, full curve]
C=CCOc1c(Br)cc(/C=C(\C#N)C(N)=O)cc1OC 12.6 µM [inhibitor, partial curve, poor fit]
Cc1ccc(CS(=O)(=O)c2ncc(Cl)c(C(=O)Nc3nc4ccc(C)cc4s3)n2)cc1 22.4 µM [inhibitor, single point]

Arranged by heavy-atom count (smallest number first): some entries from above
Potency, inconclusive:
COc1ccc2nc(C)c3cc(C)oc3c2c1 3.16 µM [inhibitor, partial curve, poor fit]
O=C(C=Cc1ccccc1)c1c[nH]c2ccccc2c1=O 22.4 µM [inhibitor, full curve]
COc1ccc(Cc2nnc(Nc3ccccc3)s2)cc1Br 31.6 µM [inhibitor, partial curve, poor fit]
Cc1cc(C)cc(NC(=O)CSc2nnc(-c3ccccc3)n2N)c1 112 µM [inhibitor, partial curve, poor fit]
Cc1cc(/C=C2/SC(=O)NC2=O)c(C)n1-c1ccc(N2CCOCC2)cc1 3.16 µM [inhibitor, partial curve, poor fit]
O=C(NCCn1cc(SCc2ccc(Cl)cc2)c2ccccc21)c1cccs1 2.82 µM [inhibitor, full curve, poor fit]
Cc1ccc(-c2nc(SCC(=O)N(C)C3CCS(=O)(=O)C3)[nH]c2-c2ccc(C)cc2)cc1 (centres undefined) 79.4 µM [inhibitor, full curve]

Next part:

Potency, active:
Cc1ccc(CN2C(=O)N/C(=C\c3cccn3-c3cccc(C(=O)O)c3)C2=O)cc1 14.1 µM
O=C(CCc1nc2sc3c(c2c(=O)[nH]1)CCCC3)Nc1ccccc1Cl 44.7 µM
CCCCN(CCCC)CCNC(=O)Cn1nc(CC)n2c(cc3sc(C)cc32)c1=O 25.1 µM
